Data as given in PubChem BioAssay AID504786 (Drosophila RNAi Screening Center, 2011).

Test: 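Knock-downs reducing HIF reporter induction by the iron chelator DFO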 (primary screen)
System: Drosophila S2 cells with a stable HIF luciferase reporter
Knock-down reagent: long dsRNA against Drosophila genes, about 0.2 µg dsRNA per well of a 384-well plate
Time to read-out: three days of knock-down, then 20 h of DFO before reading
Treatment: desferrioxamine (DFO) at 100 µM, an iron chelator that mimics hypoxia, for 20 h
Detection: 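HIF reporter luminescence in cells given 100 µM DFO for 20 h, using the mouse ldh-a hypoxia-response element, scored as per-plate z-scores; higher means greater loss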
Reading the numbers: z-score: higher = stronger loss of HIF reporter signal
In all, the deposit lists about 21,000 reagents; shown is an unselected part of those with a known target gene and a result. 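Primary screen; positive scores mean lost reporter signal, so the sign may be inverted from the usual convention.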 Reagents against one gene are numbered here. A plus sign joins genes that one reagent is predicted to hit.

| Gene | reagent | z-score, replicate 1 | z-score, replicate 2 | z-score, replicate 3 | z-score, replicate 4 |
| --- | --- | --- | --- | --- | --- |
| Blos4 | 1 | -0.3 | -0.9 | – | – |
| Irp-1B (Iron regulatory protein 1B) | 1 | -0.3 | -0.5 | – | – |
| Mvk + CG33672 + spt4 | 1 | -0.3 | 0 | – | – |
| Mvk + CG33672 + spt4 | 2 | -0.2 | -0.1 | – | – |
| CG2211 | 1 | -0.3 | 0.3 | – | – |
| CG11598 | 1 | -0.3 | -0.6 | – | – |
| CG18568 | 1 | -0.2 | -0.2 | – | – |
| sced (scrambled) | 1 | -0.2 | -0.7 | – | – |
| CG15760 | 1 | -0.2 | -0.2 | – | – |
| CG14355 | 1 | -0.3 | -0.4 | – | – |
| Jhbp12 (Juvenile hormone binding protein 12) | 1 | -0.1 | 1.2 | – | – |
| Cyp6t3 (Cytochrome P450 6t3) | 1 | -0.3 | 0.2 | – | – |
| CarT (Carcinine transporter) | 1 | -0.2 | -0.3 | – | – |
| CG9674 | 1 | -0.3 | -0.2 | – | – |
| CG9674 | 2 | 0 | -0.1 | – | – |
| CG6271 | 1 | -0.3 | -0.3 | – | – |
| arr (arrow) | 1 | -0.3 | -0.3 | – | – |
| wash (washout) | 1 | -0.3 | -0.5 | – | – |
| Ykt6 (YKT6 v-SNARE) | 1 | -0.5 | 0.4 | – | – |
| nab | 1 | -0.3 | -0.4 | – | – |
| nab | 2 | 0.1 | -0.7 | – | – |
| CG16964 | 1 | -0.2 | -0.8 | – | – |
| CG11444 | 1 | -0.2 | 0.3 | – | – |
| CG17672 | 1 | 2.2 | 2.4 | – | – |
| CG17672 | 2 | -0.1 | -0.2 | – | – |
| CG11892 | 1 | -0.2 | -0.4 | – | – |
| CG7739 | 1 | -0.4 | -0.5 | – | – |
| CG32512 | 1 | -0.5 | -0.3 | -0.4 | -0.5 |
| CG32512 | 2 | -0.5 | -0.5 | – | – |
| Lamtor3 (Late endosomal/lysosomal adaptor, MAPK and MTOR activator 3) | 1 | 0.2 | 0.3 | – | – |
| CG14424 | 1 | -0.3 | -0.8 | – | – |
| E(spl)m6-BFM (Enhancer of split m6, Bearded family member) | 1 | -0.5 | -0.7 | – | – |
| CG18563 | 1 | 1.4 | -0.3 | – | – |
| CG17068 | 1 | -0.3 | -0.4 | – | – |
| CG34382 | 1 | -0.5 | 0.1 | – | – |
| CG34382 | 2 | -0.2 | -0.1 | – | – |
| CG34382 | 3 | -0.3 | -0.3 | – | – |
| Hsp70Aa + Hsp70Bb + Hsp70Ba + 3 more | 1 | 1.8 | 2.9 | – | – |
| Ino80 (INO80 complex subunit) | 1 | -1.4 | -0.1 | – | – |
| Ino80 (INO80 complex subunit) | 2 | -0.4 | -0.4 | – | – |
| Ino80 (INO80 complex subunit) | 3 | -1.4 | -0.7 | – | – |
| Chmp1 (Charged multivesicular body protein 1) | 1 | -0.3 | -0.5 | – | – |
| SK (small conductance calcium-activated potassium channel) | 1 | 0 | 0 | – | – |
| SK (small conductance calcium-activated potassium channel) | 2 | -0.3 | 0.3 | – | – |
| SK (small conductance calcium-activated potassium channel) | 3 | -0.3 | 0 | – | – |
| SK (small conductance calcium-activated potassium channel) | 4 | -0.2 | 0.1 | – | – |
| SK (small conductance calcium-activated potassium channel) | 5 | -0.3 | -0.5 | – | – |
| Vha14-1 (Vacuolar H[+] ATPase 14kD subunit 1) | 1 | 0.2 | 0 | – | – |
| GstD6 (Glutathione S transferase D6) | 1 | -0.3 | -0.5 | – | – |
| NimB1 (Nimrod B1) | 1 | -0.3 | -0.1 | – | – |
| ND-51 (NADH dehydrogenase (ubiquinone) 51 kDa subunit) | 1 | 0.2 | 0 | – | – |
| MKP-4 (MAPK Phosphatase 4) | 1 | -0.1 | 0.2 | – | – |
| CG40245 (retired record) | 1 | 0 | -0.1 | – | – |
| Scsalpha2 (Succinyl-coenzyme A synthetase alpha subunit 2) | 1 | -0.3 | -0.7 | – | – |
| Hip14 (Huntingtin-interacting protein 14) | 1 | -0.3 | -0.1 | – | – |
| CG11396 | 1 | -0.1 | 0 | – | – |
| Trax (Translin associated factor X) | 1 | 0.2 | 0.1 | – | – |
| Taf8 (TBP-associated factor 8) | 1 | -0.1 | 1.2 | – | – |
| TBC1D23 (TBC1 domain family member 23) | 1 | 0.1 | -0.3 | – | – |
| CG18744 | 1 | -0.3 | -0.7 | – | – |
| CG34174 | 1 | 1.2 | -0.5 | – | – |
| CG10472 | 1 | -0.4 | -0.3 | – | – |
| CG14950 (retired record) | 1 | -0.3 | 0.3 | – | – |
| GstD4 (Glutathione S transferase D4) | 1 | -0.4 | -0.2 | – | – |
| CAHbeta (Carbonic anhydrase beta) | 1 | -0.4 | -0.3 | – | – |
| ph-d (polyhomeotic distal) | 1 | 4 | 0.9 | – | – |
| cGlr2 (cGAS-like receptor 2) | 1 | -0.2 | -0.1 | – | – |
| CG15201 | 1 | -0.2 | -0.6 | – | – |
| CG12547 | 1 | -0.3 | -0.4 | – | – |
| CG7857 | 1 | -0.2 | -0.1 | – | – |
| CG13067 | 1 | -0.2 | 0.2 | – | – |
| Pcyt1 (Phosphocholine cytidylyltransferase 1) | 1 | 0.1 | 0.2 | – | – |
| dpr1 (defective proboscis extension response 1) | 1 | 0.3 | -0.3 | – | – |
| dpr1 (defective proboscis extension response 1) | 2 | -0.4 | -0.1 | – | – |
| PDZ-GEF (PDZ domain-containing guanine nucleotide exchange factor) | 1 | -0.1 | 0.1 | – | – |
| CG8834 | 1 | -0.2 | -0.1 | – | – |
| CG8673 | 1 | -0.3 | -0.3 | – | – |
| Paf-AHalpha (Platelet-activating factor acetylhydrolase alpha) | 1 | -0.3 | -0.7 | – | – |
| MAGE | 1 | 0 | -0.3 | – | – |
| da | 1 | -0.1 | -0.1 | – | – |
| CG34278 | 1 | 0 | 0.1 | – | – |
| CG12895 | 1 | -0.3 | -0.5 | – | – |
| Sce (Sex combs extra) | 1 | -0.4 | -0.6 | – | – |
| Gbp2 (Growth-blocking peptide 2) | 1 | -0.1 | -0.3 | – | – |
| CG14262 | 1 | -0.3 | -0.4 | – | – |
| ifc (infertile crescent) | 1 | -0.4 | -0.3 | – | – |
| Trf5 (TBP-related factor 5) | 1 | -0.2 | 0.2 | – | – |
| eIF3g2 (eukaryotic translation initiation factor 3 subunit g2) | 1 | -0.1 | -0.6 | – | – |
| Snx1 (Sorting nexin 1) | 1 | -0.3 | -0.1 | – | – |
| CG6295 | 1 | 0 | -0.2 | – | – |
| CG17325 + CG42305 | 1 | -0.4 | -0.3 | – | – |
| CG30389 | 1 | 0 | -0.1 | – | – |
| CG30389 | 2 | 1.1 | 1.3 | – | – |
| CG3191 | 1 | -0.3 | -0.3 | – | – |
| CG13083 | 1 | -0.4 | -0.6 | – | – |
| CG13170 | 1 | 0 | 0 | – | – |
| Upf3 | 1 | -0.4 | -0.6 | – | – |
| Grl43a (Gustatory receptor-like 43a) | 1 | -0.1 | -0.2 | – | – |
| rg (rugose) | 1 | -0.1 | -0.2 | – | – |
| rg (rugose) | 2 | -0.1 | 0 | – | – |
| rg (rugose) | 3 | -0.3 | -0.1 | – | – |
| ArgRS (Arginyl-tRNA synthetase) | 1 | 0.3 | 1.3 | – | – |
| CG11089 + CG31381 | 1 | -0.3 | -0.2 | – | – |
| CG11089 + CG31381 | 2 | -0.2 | -0.3 | – | – |
| GABA-B-R2 (metabotropic GABA-B receptor subtype 2) | 1 | -0.3 | -0.6 | – | – |
| CG34315 + Orc3 | 1 | -0.2 | -0.3 | – | – |
